Source: publication PMC4371837
Results are given in words; binding and its absence hold for the method and conditions named. In cells and extracts the contact can be indirect. Some entries that bind do so weakly or less than the wild type. Tags and fused reporters may be left off the sequences shown.

Sequences of proteins named here, by UniProt entry; tags and fusion partners are left off.
UniProt Q921E6: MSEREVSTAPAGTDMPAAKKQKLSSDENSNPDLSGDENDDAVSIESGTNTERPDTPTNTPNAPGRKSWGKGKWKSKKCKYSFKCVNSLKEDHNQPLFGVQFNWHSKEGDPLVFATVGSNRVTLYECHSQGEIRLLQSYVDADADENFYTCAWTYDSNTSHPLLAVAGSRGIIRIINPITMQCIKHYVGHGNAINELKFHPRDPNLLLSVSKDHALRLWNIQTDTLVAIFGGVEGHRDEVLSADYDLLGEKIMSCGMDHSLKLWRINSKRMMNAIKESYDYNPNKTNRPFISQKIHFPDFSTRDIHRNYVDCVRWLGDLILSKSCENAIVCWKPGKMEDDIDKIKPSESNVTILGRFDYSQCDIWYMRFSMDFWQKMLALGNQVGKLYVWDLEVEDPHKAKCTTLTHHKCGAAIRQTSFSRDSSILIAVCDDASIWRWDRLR
UniProt Q80U70: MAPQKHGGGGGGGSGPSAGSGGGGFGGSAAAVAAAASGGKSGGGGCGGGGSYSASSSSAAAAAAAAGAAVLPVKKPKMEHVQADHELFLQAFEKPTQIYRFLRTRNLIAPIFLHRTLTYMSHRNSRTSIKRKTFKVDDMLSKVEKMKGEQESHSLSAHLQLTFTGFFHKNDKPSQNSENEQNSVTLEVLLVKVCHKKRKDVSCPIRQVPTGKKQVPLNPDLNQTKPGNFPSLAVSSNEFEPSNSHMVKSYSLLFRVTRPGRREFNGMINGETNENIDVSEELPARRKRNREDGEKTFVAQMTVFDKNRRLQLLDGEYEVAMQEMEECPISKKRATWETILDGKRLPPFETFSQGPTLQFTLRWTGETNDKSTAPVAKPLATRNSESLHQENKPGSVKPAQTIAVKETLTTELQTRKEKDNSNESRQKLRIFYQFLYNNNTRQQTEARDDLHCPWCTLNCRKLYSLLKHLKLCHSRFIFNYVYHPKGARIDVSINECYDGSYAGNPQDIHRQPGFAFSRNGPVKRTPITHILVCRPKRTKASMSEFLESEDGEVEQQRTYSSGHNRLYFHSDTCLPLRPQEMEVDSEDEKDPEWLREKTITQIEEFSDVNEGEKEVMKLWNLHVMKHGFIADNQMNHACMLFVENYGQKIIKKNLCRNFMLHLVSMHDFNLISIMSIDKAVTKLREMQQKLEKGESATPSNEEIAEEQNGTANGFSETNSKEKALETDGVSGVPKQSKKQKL

Biological target: T1, Flag-BioT-mREST (mouse REST tagged with a biotin acceptor sequence) (mouse) (UniProt Q8VIG1)
T1 sequence (chain, biotin on the biotin acceptor sequence (cells express E. coli BirA ligase)): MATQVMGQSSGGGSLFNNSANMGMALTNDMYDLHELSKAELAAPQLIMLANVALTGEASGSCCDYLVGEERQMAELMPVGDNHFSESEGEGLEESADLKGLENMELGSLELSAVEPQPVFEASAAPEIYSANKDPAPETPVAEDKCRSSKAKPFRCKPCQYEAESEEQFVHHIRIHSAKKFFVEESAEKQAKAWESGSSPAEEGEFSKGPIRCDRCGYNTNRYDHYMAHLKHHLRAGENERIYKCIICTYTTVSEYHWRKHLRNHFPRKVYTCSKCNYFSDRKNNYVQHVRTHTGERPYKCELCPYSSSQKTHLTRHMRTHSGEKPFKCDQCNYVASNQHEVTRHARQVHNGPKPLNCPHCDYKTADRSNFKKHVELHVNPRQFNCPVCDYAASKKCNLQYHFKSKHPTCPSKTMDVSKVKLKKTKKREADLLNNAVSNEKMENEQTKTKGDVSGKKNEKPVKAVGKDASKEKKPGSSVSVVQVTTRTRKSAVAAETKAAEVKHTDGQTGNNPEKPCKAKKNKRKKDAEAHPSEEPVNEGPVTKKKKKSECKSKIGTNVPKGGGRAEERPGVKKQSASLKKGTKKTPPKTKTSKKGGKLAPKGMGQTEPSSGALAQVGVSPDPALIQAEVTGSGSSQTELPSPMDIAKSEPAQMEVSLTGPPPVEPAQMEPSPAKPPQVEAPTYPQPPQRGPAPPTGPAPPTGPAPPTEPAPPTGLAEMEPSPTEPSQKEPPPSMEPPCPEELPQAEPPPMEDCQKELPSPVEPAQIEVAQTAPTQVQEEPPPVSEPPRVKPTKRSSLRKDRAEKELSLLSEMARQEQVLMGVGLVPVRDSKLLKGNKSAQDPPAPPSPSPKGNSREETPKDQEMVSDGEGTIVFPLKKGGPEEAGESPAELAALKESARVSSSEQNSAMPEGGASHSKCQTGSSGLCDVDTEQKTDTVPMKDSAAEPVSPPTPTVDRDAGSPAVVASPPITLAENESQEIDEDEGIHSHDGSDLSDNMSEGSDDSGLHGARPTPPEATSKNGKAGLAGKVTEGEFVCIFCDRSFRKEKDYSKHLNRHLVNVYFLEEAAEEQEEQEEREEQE
Assay: co-IP; streptavidin beads, nuclear extract of biotin-tagged REST ESCs or BirA control ESCs; Western blot

| Substance | binding |
| --- | --- |
| Eed (from UniProt Q921E6 1-441) | no binding |
| Suz12 (from UniProt Q80U70 1-741) | binds |
